PubChem BioAssay AID1508597 – Cure First, 2020
This is a random part of the about 2,100 reagents, under one of the conditions tested. 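Calls flag viability under 80% in either arm, not effects specific to rucaparib; the reference for percent is not stated.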 Entries without a mark were called inactive. The record does not give: the 100% reference.

- Screen: 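Survival screen with siRNA in ovarian cancer cells derived from patients, with or without rucaparib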 (primary screen)
- Cells: human ovarian carcinoma lines grown from tumours: OCI-P5x (papillary serous) and OCI-C5x (clear cell)
- Reagents: siRNA pool against human genes, 1.25 pmol siRNA per well
- Time to read-out: 72 h or 96 h, depending on the cell culture
- Challenge: rucaparib 20 µM (about IC30) or vehicle, present until read-out
- Rucaparib or vehicle: Vehicle
- Cell line: OCI-P5x (serous)
- Measured: 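Luminescent ATP-based viability assay read 72 or 96 h after transfection, depending on culture, given as normalised percent viability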
- Scale: viability, normalised: higher = more viable cells remaining
- Rule for the call: 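a well counts as a hit if its normalised viability is under 80 percent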
- Meaning of the calls: active = viability under 80%; inactive = viability 80% or more

{"target": "PDE1B (phosphodiesterase 1B)", "PubChem SID": "SID405526684", "technical replicate": "1", "viability, normalised (%)": "56.2 (active)"}
{"target": "PDE1B (phosphodiesterase 1B)", "PubChem SID": "SID405526684", "technical replicate": "2", "viability, normalised (%)": "63.6 (active)"}
{"target": "PDE1B (phosphodiesterase 1B)", "PubChem SID": "SID405526684", "technical replicate": "3", "viability, normalised (%)": "67.3 (active)"}
{"target": "BRD10 (bromodomain containing 10)", "PubChem SID": "SID405526943", "technical replicate": "1", "viability, normalised (%)": "63 (active)"}
{"target": "BRD10 (bromodomain containing 10)", "PubChem SID": "SID405526943", "technical replicate": "2", "viability, normalised (%)": "51.1 (active)"}
{"target": "BRD10 (bromodomain containing 10)", "PubChem SID": "SID405526943", "technical replicate": "3", "viability, normalised (%)": "56.2 (active)"}
{"target": "NEK5 (NIMA related kinase 5)", "PubChem SID": "SID405527765", "technical replicate": "1", "viability, normalised (%)": 87.6}
{"target": "NEK5 (NIMA related kinase 5)", "PubChem SID": "SID405527765", "technical replicate": "2", "viability, normalised (%)": "74.4 (active)"}
{"target": "NEK5 (NIMA related kinase 5)", "PubChem SID": "SID405527765", "technical replicate": "3", "viability, normalised (%)": "66.3 (active)"}
{"target": "SLC22A11", "PubChem SID": "SID405527313", "technical replicate": "1", "viability, normalised (%)": "42.1 (active)"}
{"target": "SLC22A11", "PubChem SID": "SID405527313", "technical replicate": "2", "viability, normalised (%)": "48 (active)"}
{"target": "SLC22A11", "PubChem SID": "SID405527313", "technical replicate": "3", "viability, normalised (%)": "43.5 (active)"}
{"target": "APP (amyloid beta precursor protein)", "PubChem SID": "SID405527970", "technical replicate": "1", "viability, normalised (%)": 87.1}
{"target": "APP (amyloid beta precursor protein)", "PubChem SID": "SID405527970", "technical replicate": "2", "viability, normalised (%)": "62.7 (active)"}
{"target": "APP (amyloid beta precursor protein)", "PubChem SID": "SID405527970", "technical replicate": "3", "viability, normalised (%)": 83.6}
{"target": "PDE4C (phosphodiesterase 4C)", "PubChem SID": "SID405526691", "technical replicate": "1", "viability, normalised (%)": "74.9 (active)"}
{"target": "PDE4C (phosphodiesterase 4C)", "PubChem SID": "SID405526691", "technical replicate": "2", "viability, normalised (%)": "55.5 (active)"}
{"target": "PDE4C (phosphodiesterase 4C)", "PubChem SID": "SID405526691", "technical replicate": "3", "viability, normalised (%)": "51.2 (active)"}
{"target": "RAB38 (RAB38, member RAS oncogene family)", "PubChem SID": "SID405527747", "technical replicate": "1", "viability, normalised (%)": 90}
{"target": "RAB38 (RAB38, member RAS oncogene family)", "PubChem SID": "SID405527747", "technical replicate": "2", "viability, normalised (%)": "75.1 (active)"}
{"target": "RAB38 (RAB38, member RAS oncogene family)", "PubChem SID": "SID405527747", "technical replicate": "3", "viability, normalised (%)": "76 (active)"}

Next part (4 carried over from the part before).
{"target": "PDE4C (phosphodiesterase 4C)", "PubChem SID": "SID405526691", "technical replicate": "3", "viability, normalised (%)": "51.2 (active)"}
{"target": "RAB38 (RAB38, member RAS oncogene family)", "PubChem SID": "SID405527747", "technical replicate": "1", "viability, normalised (%)": 90}
{"target": "RAB38 (RAB38, member RAS oncogene family)", "PubChem SID": "SID405527747", "technical replicate": "2", "viability, normalised (%)": "75.1 (active)"}
{"target": "RAB38 (RAB38, member RAS oncogene family)", "PubChem SID": "SID405527747", "technical replicate": "3", "viability, normalised (%)": "76 (active)"}
{"target": "BHLHE40 (basic helix-loop-helix family member e40)", "PubChem SID": "SID405528030", "technical replicate": "1", "viability, normalised (%)": "52.7 (active)"}
{"target": "BHLHE40 (basic helix-loop-helix family member e40)", "PubChem SID": "SID405528030", "technical replicate": "2", "viability, normalised (%)": "68.2 (active)"}
{"target": "BHLHE40 (basic helix-loop-helix family member e40)", "PubChem SID": "SID405528030", "technical replicate": "3", "viability, normalised (%)": "69.2 (active)"}
{"target": "PIM3 (Pim-3 proto-oncogene, serine/threonine kinase)", "PubChem SID": "SID405527698", "technical replicate": "1", "viability, normalised (%)": "70 (active)"}
{"target": "PIM3 (Pim-3 proto-oncogene, serine/threonine kinase)", "PubChem SID": "SID405527698", "technical replicate": "2", "viability, normalised (%)": "67.4 (active)"}
{"target": "PIM3 (Pim-3 proto-oncogene, serine/threonine kinase)", "PubChem SID": "SID405527698", "technical replicate": "3", "viability, normalised (%)": "71.1 (active)"}
{"target": "DEAF1 (DEAF1 transcription factor)", "PubChem SID": "SID405528207", "technical replicate": "1", "viability, normalised (%)": "58.3 (active)"}
{"target": "DEAF1 (DEAF1 transcription factor)", "PubChem SID": "SID405528207", "technical replicate": "2", "viability, normalised (%)": "74.2 (active)"}
{"target": "DEAF1 (DEAF1 transcription factor)", "PubChem SID": "SID405528207", "technical replicate": "3", "viability, normalised (%)": "62.5 (active)"}
{"target": "PPARGC1A (PPARG coactivator 1 alpha)", "PubChem SID": "SID405527178", "technical replicate": "1", "viability, normalised (%)": "73.4 (active)"}
{"target": "PPARGC1A (PPARG coactivator 1 alpha)", "PubChem SID": "SID405527178", "technical replicate": "2", "viability, normalised (%)": 91.4}
{"target": "PPARGC1A (PPARG coactivator 1 alpha)", "PubChem SID": "SID405527178", "technical replicate": "3", "viability, normalised (%)": 86.4}
